Measured values taken from US20230113823A1.
Results are given in words; binding and its absence hold for the method and conditions named. Some entries that bind do so weakly or less than the wild type.

B1: 3-A4 (antibody, V domains shown)
VH: EVQLQQSGAELVRPGASVKLSCTASGFNIKDDYMYWVKQRPEQGLEWIGWIDPENGDTEYASKFQDKATVTADTSSNTAYLQLSSLTSEDTAVYYCTLWLRRGLDYWGQGTSVTVSS
VL: DIVMTQAAPSVPVTPGESVSISCRSSKSLLHSNGYTYLFWFLQRPGQSPQLLIYRMSNLASGVPDRFSGSGSGTAFTLRISRVEAEDVGVYYCMQHLEYPFTFGGGTKLEIK
B2: 3-M12 (antibody, V domains shown)
VH: DVQLQESGPGLVKPSQSLSLTCSVTGYSITSGYYWNWIRQFPGNKLEWMGYITFDGANNYNPSLKNRISITRDTSKNQFFLKLTSVTTEDTATYYCTRSSYDYDVLDYWGQGTTLTVSS
VL: DIQMTQTTSSLSASLGDRVTISCRASQDISNFLNWYQQRPDGTVKLLIYYTSRLHSGVPSRFSGSGSGTDFSLTVSNLEQEDIATYFCQQGHTLPYTFGGGTKLEIK
B3: 5-H12 (antibody, V domains shown)
VH: QIQLQQSGPELVRPGASVKISCKASGYSFTDYCINWVNQRPGQGLEWIGWIYPGSGNTRYSERFKGKATLTVDTSSNTAYMQLSSLTSEDSAVYFCAREDYYPYHGMDYWGQGTSVTVSS
VL: DIVLTQSPTSLAVSLGQRATISCRASESVDGYDNSFMHWYQQKPGQPPKLLIFRASNLESGIPARFSGSGSRTDFTLTINPVEAADVATYYCQQSSEDPWTFGGGTKLEIK
B4: 8-K6 (antibody, V domains shown)
VH: QVHLQQPGAELVKPGASVKMSCKASGYTFTSYWITWVKQRPGQGLEWIGDIFPNSGRTNYDEKFKSKATLTVDTSSSTAYMQLSSLTSEDSAVYFCAREGNFGSLDYWGQGTTLTVSS
VL: QIVLTQSPAIMSASPGEKVTMTCSANSNLNYMNWYHQKSGTSPKRWIYDTSKLASGVPARFSASGSGTSYSLTISSMEAEDAATYYCQQWSRNPLTFGAGTRLELK
B5: 3-E5 (antibody, V domains shown)
VH: EIQMKQSGAELVKPGASVKISCKASGYSFTGYNMNWVKQSHGKSLEWIGNINPYYGSTGYNQKFKGKATLTVDKSSSTAYMQLNSLTSEDSAVYYCARGDYGYDEGTWFAYWGQGTLVTVSA
VL: DIVMSQSPSSLAVSAGEKVTMSCKSSQSLLNSRTRKNYLAWYQQKPEQSPKLLIYWASTRESGVPDRFTGSGSGTDFTLTISSVQAEDLAVYYCKQSYNLPFTFGSGTKLEIK
B6: 9-D4 (antibody, V domains shown)
VH: QVQLQQSGTELARPGASVKLSCKASGFTFTDYGINWVKQRTGQGLEWIGEIYPSSGNSYYNEKFKAKATLTADKSSSTAYMELRSLTSEDSAVYFCARSTYYGSPIDYWGQGTTLTVSS
VL: DIVMTQSHKFMSTPVGDRVSITCKASQDVDTTVAWYQQKPGQSPKLLIYWASTRQIGVPDRFTGSGSGTDFTLTISNVQSEDLADYFCQQYSTYPLTFGGGTKLEIK

Biological target: cynomolgus transferrin receptor 1 (cyno TfR1) (cynomolgus monkey (Macaca fascicularis))
Assay: worded comparison with control antibody 15G11

binding, binds:
B1, B2, B3, B4, B5, B6
